This assay has as its target T1, SFB-SGT1 (triple-tagged SGT1, wild type), in HEK293T (human) (UniProt Q9Y2Z0).
T1 sequence: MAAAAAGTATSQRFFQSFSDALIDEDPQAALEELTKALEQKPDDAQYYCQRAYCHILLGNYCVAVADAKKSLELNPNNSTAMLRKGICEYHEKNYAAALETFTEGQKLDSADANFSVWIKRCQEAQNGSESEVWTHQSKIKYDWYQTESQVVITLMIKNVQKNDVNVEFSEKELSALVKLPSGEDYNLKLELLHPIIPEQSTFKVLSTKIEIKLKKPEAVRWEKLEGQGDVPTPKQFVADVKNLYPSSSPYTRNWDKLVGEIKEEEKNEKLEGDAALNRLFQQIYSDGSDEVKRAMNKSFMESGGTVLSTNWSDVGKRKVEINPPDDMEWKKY
Nature of the assay: affinity purification with mass spectrometry; 293T cells expressing SFB-SGT1; NETN lysate; streptavidin-Sepharose, biotin elution, S-protein-agarose; SDS-PAGE and mass spectrometry.

Results are given in words; binding and its absence hold for the method and conditions named. In cells and extracts the contact can be indirect. A yes stands for co-enrichment or nearness to the bait. Other partners may have been found. Sequences can lack the tags named with a protein.

B1: RNF41 (ring finger protein 41), endogenous in 293T (enzyme, UniProt Q9H4P4 1-317)
chain: MGYDVTRFQGDVDEDLICPICSGVLEEPVQAPHCEHAFCNACITQWFSQQQTCPVDRSVVTVAHLRPVPRIMRNMLSKLQIACDNAVFGCSAVVRLDNLMSHLSDCEHNPKRPVTCEQGCGLEMPKDELPNHNCIKHLRSVVQQQQTRIAELEKTSAEHKHQLAEQKRDIQLLKAYMRAIRSVNPNLQNLEETIEYNEILEWVNSLQPARVTRWGGMISTPDAVLQAVIKRSLVESGCPASIVNELIENAHERSWPQGLATLETRQMNRRYYENYVAKRIPGKQAVVVMACENQHMGDDMVQEPGLVMIFAHGVEEI
In the case of B1, the binding result is “binds”.

Source of the values: PMC5572923.
